# According to the supplement of paper PMC6411743:
# By UniProt entry, the sequences of proteins in these tests, tags left out. Where a name states a change or a piece, a line headed by the entry shows the natural chain unless it says otherwise.
# UniProt Q15208: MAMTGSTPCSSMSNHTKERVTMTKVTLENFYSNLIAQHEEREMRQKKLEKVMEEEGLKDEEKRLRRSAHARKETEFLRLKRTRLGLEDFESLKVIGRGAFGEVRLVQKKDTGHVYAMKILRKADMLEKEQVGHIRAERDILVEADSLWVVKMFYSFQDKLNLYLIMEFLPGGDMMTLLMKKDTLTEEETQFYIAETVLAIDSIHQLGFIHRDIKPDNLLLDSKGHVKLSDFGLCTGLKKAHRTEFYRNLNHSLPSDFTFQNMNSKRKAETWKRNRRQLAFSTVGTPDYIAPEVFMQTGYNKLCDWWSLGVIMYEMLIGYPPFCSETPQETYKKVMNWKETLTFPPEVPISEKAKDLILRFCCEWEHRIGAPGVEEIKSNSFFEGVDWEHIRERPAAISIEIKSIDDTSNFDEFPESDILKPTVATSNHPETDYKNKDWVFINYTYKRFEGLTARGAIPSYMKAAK
# UniProt Q15084: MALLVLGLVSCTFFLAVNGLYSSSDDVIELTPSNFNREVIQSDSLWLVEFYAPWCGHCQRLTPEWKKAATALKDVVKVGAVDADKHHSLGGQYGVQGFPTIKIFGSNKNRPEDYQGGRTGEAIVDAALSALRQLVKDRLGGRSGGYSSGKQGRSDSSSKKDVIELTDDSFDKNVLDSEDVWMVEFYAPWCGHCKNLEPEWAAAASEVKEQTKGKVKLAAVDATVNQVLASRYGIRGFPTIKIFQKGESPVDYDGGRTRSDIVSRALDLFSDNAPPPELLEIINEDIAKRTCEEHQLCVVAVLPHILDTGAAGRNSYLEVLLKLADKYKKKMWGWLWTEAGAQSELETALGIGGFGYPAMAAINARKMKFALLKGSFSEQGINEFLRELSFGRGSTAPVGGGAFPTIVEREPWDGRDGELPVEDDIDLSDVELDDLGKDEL
# UniProt Q3ZCQ8: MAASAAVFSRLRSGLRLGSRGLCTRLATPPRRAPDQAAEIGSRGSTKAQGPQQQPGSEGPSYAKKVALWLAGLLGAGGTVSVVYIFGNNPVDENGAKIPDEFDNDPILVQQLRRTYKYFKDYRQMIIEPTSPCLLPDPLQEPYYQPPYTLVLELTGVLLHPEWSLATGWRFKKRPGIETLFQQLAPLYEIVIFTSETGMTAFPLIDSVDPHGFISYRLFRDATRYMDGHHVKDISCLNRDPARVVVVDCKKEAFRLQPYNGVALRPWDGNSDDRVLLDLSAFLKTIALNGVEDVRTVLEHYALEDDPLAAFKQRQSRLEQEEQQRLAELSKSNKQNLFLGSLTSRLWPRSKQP
# UniProt Q15286: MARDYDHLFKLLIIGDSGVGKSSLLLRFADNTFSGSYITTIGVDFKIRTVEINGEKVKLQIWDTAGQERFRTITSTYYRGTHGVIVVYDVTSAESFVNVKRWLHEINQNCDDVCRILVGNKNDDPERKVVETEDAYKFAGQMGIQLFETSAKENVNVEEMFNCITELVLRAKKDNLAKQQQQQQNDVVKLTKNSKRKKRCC
# UniProt Q2M296: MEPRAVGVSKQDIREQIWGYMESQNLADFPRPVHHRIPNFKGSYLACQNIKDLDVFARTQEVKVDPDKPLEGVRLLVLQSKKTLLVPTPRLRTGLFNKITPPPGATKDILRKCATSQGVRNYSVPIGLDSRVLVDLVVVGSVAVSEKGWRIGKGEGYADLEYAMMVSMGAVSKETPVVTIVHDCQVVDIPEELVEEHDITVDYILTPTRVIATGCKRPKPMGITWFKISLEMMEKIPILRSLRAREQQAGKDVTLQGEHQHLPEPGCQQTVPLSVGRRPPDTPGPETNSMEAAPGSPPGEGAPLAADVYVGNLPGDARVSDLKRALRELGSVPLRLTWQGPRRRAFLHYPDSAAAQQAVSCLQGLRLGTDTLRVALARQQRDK
# UniProt Q14CS0: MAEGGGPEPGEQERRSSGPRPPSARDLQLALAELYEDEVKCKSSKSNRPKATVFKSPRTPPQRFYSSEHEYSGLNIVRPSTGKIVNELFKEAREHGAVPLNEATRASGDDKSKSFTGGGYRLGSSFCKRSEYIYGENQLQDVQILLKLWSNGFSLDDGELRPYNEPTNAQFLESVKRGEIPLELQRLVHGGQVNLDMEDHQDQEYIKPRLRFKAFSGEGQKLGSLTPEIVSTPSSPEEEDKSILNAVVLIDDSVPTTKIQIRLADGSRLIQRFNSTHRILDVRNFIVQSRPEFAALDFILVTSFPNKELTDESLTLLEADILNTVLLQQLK
# UniProt Q15061: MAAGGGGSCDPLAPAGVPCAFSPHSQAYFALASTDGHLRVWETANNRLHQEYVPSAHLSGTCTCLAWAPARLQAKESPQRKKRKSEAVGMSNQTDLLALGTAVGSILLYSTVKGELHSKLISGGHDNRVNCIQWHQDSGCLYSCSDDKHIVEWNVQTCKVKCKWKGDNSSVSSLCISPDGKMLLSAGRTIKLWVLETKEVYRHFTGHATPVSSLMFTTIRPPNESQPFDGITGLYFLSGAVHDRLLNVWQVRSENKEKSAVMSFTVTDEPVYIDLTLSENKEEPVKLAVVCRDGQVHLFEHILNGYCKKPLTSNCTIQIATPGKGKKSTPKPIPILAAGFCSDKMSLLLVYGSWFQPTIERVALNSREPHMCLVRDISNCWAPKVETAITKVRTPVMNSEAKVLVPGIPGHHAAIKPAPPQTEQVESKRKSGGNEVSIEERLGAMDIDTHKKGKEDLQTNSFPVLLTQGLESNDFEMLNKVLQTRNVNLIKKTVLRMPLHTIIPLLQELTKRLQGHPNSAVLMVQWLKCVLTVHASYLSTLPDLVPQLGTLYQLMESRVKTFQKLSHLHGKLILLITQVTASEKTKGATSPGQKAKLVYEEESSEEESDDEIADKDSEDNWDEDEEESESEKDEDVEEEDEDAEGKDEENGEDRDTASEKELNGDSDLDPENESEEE
# UniProt Q15154: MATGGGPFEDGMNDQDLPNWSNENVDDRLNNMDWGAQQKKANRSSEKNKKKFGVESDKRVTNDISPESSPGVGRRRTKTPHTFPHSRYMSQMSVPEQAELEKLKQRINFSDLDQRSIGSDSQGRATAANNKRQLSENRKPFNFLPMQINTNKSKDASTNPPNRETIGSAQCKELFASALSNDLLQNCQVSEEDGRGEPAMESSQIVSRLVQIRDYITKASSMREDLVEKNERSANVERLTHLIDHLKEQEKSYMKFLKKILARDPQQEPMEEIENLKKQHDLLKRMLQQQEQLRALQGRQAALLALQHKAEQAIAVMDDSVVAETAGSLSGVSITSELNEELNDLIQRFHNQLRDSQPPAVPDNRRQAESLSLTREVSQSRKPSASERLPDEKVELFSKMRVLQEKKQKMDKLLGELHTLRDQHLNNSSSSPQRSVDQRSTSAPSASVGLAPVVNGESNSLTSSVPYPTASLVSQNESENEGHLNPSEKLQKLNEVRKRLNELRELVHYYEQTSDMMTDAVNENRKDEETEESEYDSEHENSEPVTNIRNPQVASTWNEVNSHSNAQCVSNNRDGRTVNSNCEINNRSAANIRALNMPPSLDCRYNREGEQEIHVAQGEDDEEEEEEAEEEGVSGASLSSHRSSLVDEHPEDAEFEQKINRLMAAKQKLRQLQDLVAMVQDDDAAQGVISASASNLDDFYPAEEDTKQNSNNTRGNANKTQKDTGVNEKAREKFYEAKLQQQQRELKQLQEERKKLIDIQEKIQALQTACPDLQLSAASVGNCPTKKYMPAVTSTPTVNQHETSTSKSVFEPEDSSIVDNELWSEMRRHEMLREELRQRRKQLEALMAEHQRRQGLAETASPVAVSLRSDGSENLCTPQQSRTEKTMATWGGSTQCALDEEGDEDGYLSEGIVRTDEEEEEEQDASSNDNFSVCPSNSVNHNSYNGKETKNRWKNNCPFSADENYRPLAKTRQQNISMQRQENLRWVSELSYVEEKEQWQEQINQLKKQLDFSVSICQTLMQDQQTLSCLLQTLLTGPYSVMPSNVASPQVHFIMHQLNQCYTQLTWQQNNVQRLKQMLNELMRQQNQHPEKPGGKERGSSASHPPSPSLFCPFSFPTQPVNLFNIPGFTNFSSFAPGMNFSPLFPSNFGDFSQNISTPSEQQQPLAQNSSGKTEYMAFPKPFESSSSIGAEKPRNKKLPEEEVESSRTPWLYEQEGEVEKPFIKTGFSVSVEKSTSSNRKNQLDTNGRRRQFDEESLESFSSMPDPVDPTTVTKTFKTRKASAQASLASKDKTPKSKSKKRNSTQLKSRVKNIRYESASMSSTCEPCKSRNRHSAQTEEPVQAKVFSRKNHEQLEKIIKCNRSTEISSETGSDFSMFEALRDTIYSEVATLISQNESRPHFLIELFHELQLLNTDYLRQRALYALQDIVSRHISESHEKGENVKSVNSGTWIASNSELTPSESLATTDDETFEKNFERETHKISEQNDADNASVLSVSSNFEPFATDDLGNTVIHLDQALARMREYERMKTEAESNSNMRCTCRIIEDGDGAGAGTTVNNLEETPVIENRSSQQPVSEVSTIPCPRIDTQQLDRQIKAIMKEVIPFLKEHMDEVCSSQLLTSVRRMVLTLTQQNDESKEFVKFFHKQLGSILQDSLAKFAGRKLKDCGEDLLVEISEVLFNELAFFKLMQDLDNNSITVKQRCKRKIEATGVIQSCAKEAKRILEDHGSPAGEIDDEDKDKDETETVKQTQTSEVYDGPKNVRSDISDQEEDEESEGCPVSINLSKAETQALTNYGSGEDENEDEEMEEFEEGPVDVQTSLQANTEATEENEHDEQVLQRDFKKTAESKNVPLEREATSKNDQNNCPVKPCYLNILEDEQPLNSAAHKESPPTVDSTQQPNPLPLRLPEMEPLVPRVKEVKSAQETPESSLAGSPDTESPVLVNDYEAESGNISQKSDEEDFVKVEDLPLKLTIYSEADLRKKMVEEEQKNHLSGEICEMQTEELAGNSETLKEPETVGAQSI
# UniProt Q14644: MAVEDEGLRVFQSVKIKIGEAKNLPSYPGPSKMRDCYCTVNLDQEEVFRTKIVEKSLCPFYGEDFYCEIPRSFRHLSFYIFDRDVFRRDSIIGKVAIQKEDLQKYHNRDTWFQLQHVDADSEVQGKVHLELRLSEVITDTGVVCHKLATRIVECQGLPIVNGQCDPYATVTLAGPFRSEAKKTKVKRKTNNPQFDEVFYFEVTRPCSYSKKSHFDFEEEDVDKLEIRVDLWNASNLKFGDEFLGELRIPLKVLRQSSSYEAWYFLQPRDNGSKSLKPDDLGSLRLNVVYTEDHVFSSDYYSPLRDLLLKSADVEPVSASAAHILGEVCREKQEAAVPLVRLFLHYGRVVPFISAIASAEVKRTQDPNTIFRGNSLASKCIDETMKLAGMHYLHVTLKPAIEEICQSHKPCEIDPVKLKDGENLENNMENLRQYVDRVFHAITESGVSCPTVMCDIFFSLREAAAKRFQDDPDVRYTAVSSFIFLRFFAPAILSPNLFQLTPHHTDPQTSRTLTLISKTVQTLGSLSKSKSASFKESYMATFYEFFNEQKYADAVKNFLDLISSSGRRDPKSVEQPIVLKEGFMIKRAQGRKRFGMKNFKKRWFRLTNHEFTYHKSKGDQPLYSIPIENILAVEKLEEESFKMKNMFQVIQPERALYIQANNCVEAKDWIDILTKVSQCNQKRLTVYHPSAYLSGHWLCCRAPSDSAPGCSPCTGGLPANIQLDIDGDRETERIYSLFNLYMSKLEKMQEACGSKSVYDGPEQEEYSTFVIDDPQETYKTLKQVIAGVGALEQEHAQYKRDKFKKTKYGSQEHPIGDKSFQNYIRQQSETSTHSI
# UniProt Q15022: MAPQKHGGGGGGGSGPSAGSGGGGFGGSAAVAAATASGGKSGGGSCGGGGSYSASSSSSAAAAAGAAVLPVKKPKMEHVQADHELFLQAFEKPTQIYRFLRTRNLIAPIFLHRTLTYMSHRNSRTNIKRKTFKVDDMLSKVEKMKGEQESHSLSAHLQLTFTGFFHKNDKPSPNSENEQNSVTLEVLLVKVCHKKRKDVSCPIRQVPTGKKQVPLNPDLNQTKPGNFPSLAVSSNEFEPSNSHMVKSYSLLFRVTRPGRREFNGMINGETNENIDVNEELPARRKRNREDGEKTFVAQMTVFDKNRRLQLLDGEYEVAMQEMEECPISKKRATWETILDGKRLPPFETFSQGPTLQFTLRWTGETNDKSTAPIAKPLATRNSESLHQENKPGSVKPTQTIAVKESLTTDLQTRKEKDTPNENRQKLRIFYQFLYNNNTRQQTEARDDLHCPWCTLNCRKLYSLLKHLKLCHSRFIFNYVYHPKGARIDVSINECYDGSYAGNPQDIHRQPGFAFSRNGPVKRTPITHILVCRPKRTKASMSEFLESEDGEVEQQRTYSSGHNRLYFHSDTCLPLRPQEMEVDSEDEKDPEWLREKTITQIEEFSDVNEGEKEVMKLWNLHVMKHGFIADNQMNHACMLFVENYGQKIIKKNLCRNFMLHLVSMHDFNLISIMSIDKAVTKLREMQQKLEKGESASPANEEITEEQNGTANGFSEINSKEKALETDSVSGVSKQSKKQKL
# ± gives the standard deviation of the averaged measurements. The list shows a part of the results, in another mix than the full data.
# Compound: Nc1ncnc2c1ncn2[C@@H]1O[C@H](COP(=O)(O)OP(=O)(O)OP(=O)(O)O)[C@@H](O)[C@H]1O [adenosine triphosphate]
# Test: NP40-soluble protein abundance relative to vehicle (solubility fold change) (ratio); higher = more soluble protein in presence of ATP
# Conditions: concentration: 1mM
# In short: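 Jurkat crude lysate (Dounce-homogenised) was treated with eight concentrations from 0.1 to 10 mM for 10 min at room temperature, then 3 min at 37 °C. It was solubilised with 0.8% NP40 and benzonase (60 min, 4 °C) and ultracentrifuged, and the supernatant was TMT-labelled for LC-MS/MS. Intensities were vsn-normalised, and the value is the fold change against the NP40-processed vehicle per replicate, from three independent experiments.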
row,Target,NP40-soluble protein abundance
1,UniProt Q15006,0.966 ± 0.021
2,UniProt Q1ED39,1.02 ± 0.076
3,NONO (UniProt Q15233),1.08 ± 0.019
4,GNPTAB (UniProt Q3T906),0.954 ± 0.14
5,GINS1 (UniProt Q14691),0.962 ± 0.03
6,QPRT (UniProt Q15274),0.94 ± 0.052
7,UniProt Q14978-2,0.791 ± 0.039
8,UniProt Q14934 and related entries,0.949 ± 0.14
9,CAMK4 (UniProt Q16566),0.954 ± 0.011
10,UniProt Q15208,1.1 ± 0.059
11,UniProt Q15084 and related entries,0.874 ± 0.033
12,UniProt Q14CB8 and related entries,1.26 ± 0.11
13,UniProt Q3ZCQ8 and related entries,1 ± 0.082
14,UniProt Q15286 and related entries,0.938 ± 0.19
15,UniProt Q2M296 and related entries,1.08 ± 0.053
16,UniProt Q15642-2|Q15642-3|Q15642-4|W4VSQ9,0.958 ± 0.066
17,Q1RLN5 and related entries (UniProt Q8IWW6),0.977 ± 0.04
18,UBXN2B (UniProt Q14CS0),0.914 ± 0.057

row,Target,NP40-soluble protein abundance
1,ZNF146 (UniProt Q15072),1.02 ± 0.05
2,DPYSL2 (UniProt Q16555),1.02 ± 0.02
3,HERC1 (UniProt Q15751),1.03 ± 0.026
4,WDR43 (UniProt Q15061),1.19 ± 0.27
5,UniProt Q3V6T2 and related entries,1.01 ± 0.049
6,UniProt Q15154 and related entries,1.03 ± 0.068
7,PPP2R5A (UniProt Q15172),1.01 ± 0.036
8,UniProt Q16643 and related entries,0.631 ± 0.052
9,UniProt Q15365,1.02 ± 0.036
10,UniProt Q16659,0.99 ± 0.14
11,SEC23B (UniProt Q15437),1.04 ± 0.14
12,UniProt Q17R31 and related entries,0.986 ± 0.013
13,DDB1 (UniProt Q16531),1.04 ± 0.12
14,UniProt Q1W6H9,1.14 ± 0.08
15,RASA3 (UniProt Q14644),1.02 ± 0.086
16,SUZ12 (UniProt Q15022),1.21 ± 0.074
17,IAH1 (UniProt Q2TAA2),1 ± 0.025
18,UniProt Q4J6C6 and related entries,1.03 ± 0.054

# Same assay, conditions: concentration: 2mM
row,Target,NP40-soluble protein abundance
1,UniProt Q15006,0.978 ± 0.045
2,UniProt Q1ED39,1.04 ± 0.072
3,NONO (UniProt Q15233),1.2 ± 0.021
4,GNPTAB (UniProt Q3T906),0.921 ± 0.14
5,GINS1 (UniProt Q14691),0.966 ± 0.013
6,QPRT (UniProt Q15274),0.948 ± 0.044
7,UniProt Q14978-2,0.786 ± 0.035
8,UniProt Q14934 and related entries,1.06 ± 0.1
9,CAMK4 (UniProt Q16566),0.966 ± 0.013
10,UniProt Q15208,1.06 ± 0.064
11,UniProt Q15084 and related entries,0.876 ± 0.046
12,UniProt Q14CB8 and related entries,1.25 ± 0.088
13,UniProt Q3ZCQ8 and related entries,0.978 ± 0.078
14,UniProt Q15286 and related entries,0.998 ± 0.061
15,UniProt Q2M296 and related entries,1.14 ± 0.065
16,UniProt Q15642-2|Q15642-3|Q15642-4|W4VSQ9,0.969 ± 0.084
17,Q1RLN5 and related entries (UniProt Q8IWW6),1.05 ± 0.12
18,UBXN2B (UniProt Q14CS0),0.963 ± 0.028
